Here are results for 6 compounds from the odorant receptor screen of Mainland et al. (2015).

Several values for one entry are separate records, joined by “and”; a condition that tells them apart may be missing. Equal values may be shown once. This is one part of the list. Single wells; the ratio to wells without odorant was worked out here, and repeats agree poorly.

Among the test systems are OR51A2 clone 1577; OR51B2 clone 1551; OR51B5 clone 1553; OR51B6 clone 1554; OR51D1 clone 1206; OR51E1 S11N clone 1532; OR51E1 clone 1129; OR51E2 clone 1205; OR51F2 clone 1330; OR51G1 clone 1165; OR51G2 clone 1199; OR51H1 clone 1187; OR51I1 clone 1555; OR51I2 clone 1133; OR51J1 R75H clone 1698; OR51L1 I281M clone 1535; OR51L1 clone 1183.
Common to all, as to assay: odorant receptor activation (CRE luciferase / Renilla) (fold of no-odor wells); higher = more activation
Common to all, as to details: 100 µM

For assay [1], the system named is OR51A4 G45C/L227P/R267G clone 1166.
Assay [2] has as its system OR51B4 V36I/M147T clone 1552.
Assay [3] concerns OR51L1 T196I/A207V clone 1533.

Regarding `O=C1CCCCCCCCCCCC(=O)OCCO1` [ethylene brassylate], the odorant receptor activation is 1.01 in the assay on OR51A2 clone 1577; 1.82 in assay [1]; 1.57 in the assay with OR51B2 clone 1551; 2.29 in assay [2]; 1.12 in the assay on OR51B5 clone 1553; 1.96 in the assay with OR51B6 clone 1554. Moreover, the odorant receptor activation in the assay on OR51D1 clone 1206 was found to be 1.47; in the assay on OR51E1 S11N clone 1532, 1.12; in the assay with OR51E1 clone 1129, 1.41; with OR51E2 clone 1205, 1.18; in the assay on OR51F2 clone 1330, 1.67; in the assay with OR51G1 clone 1165, 1.74. Besides, the odorant receptor activation with OR51G2 clone 1199 amounted to 2.1; in the assay with OR51H1 clone 1187 it was 1.36; in the assay on OR51I1 clone 1555, 1.1; with OR51I2 clone 1133 it was 1.33; in the assay with OR51J1 R75H clone 1698, 1.08; in the assay on OR51L1 I281M clone 1535, 1.13. Further, the odorant receptor activation is 1.21 in assay [3] and 1.76 in the assay on OR51L1 clone 1183.
In the case of `CCCCCCCC=O` [octyl aldehyde], the odorant receptor activation in the assay with OR51A2 clone 1577 is 0.764; in [1] it was 0.989; in the assay on OR51B2 clone 1551, 1.04; in [2], 0.729; in the assay on OR51B5 clone 1553, 0.953; in the assay on OR51B6 clone 1554, 0.683. The odorant receptor activation worked out at 1.22 in the assay on OR51D1 clone 1206; 0.95 in the assay with OR51E1 S11N clone 1532; 1.43 in the assay on OR51E1 clone 1129; 1.2 with OR51E2 clone 1205; 1 in the assay with OR51F2 clone 1330; 0.981 in the assay with OR51G1 clone 1165. Moreover, the odorant receptor activation in the assay with OR51G2 clone 1199 was 1.33; in the assay on OR51H1 clone 1187 it was 1.13; in the assay with OR51I1 clone 1555 it was 0.788; with OR51I2 clone 1133, 1.1; in the assay on OR51J1 R75H clone 1698, 0.611; in the assay with OR51L1 I281M clone 1535 it was 1.01. Besides, the odorant receptor activation is 0.826 in [3] and 0.972 in the assay with OR51L1 clone 1183.
For `C=C(C)C1CC=C(C)C(=O)C1` (stereo not given) [r-carvone], the odorant receptor activation in the assay with OR51A2 clone 1577 turned out to be 0.715; in assay [1] it was 1.05; in the assay on OR51B2 clone 1551, 1.08; in [2], 0.838; in the assay on OR51B5 clone 1553 it was 0.927; in the assay with OR51B6 clone 1554, 0.737. Besides, the odorant receptor activation was found to be 1.41 in the assay on OR51D1 clone 1206; 1.01 in the assay on OR51E1 S11N clone 1532; 0.961 with OR51E1 clone 1129; 0.928 with OR51E2 clone 1205; 0.645 in the assay on OR51F2 clone 1330; 1.05 in the assay with OR51G1 clone 1165. For the same compound, the odorant receptor activation in the assay with OR51G2 clone 1199 amounted to 0.823; with OR51H1 clone 1187, 1.32; with OR51I1 clone 1555, 1.01; in the assay with OR51I2 clone 1133, 0.83; in the assay on OR51J1 R75H clone 1698, 0.69; with OR51L1 I281M clone 1535 it was 1.02. The odorant receptor activation in [3] amounted to 1.02; with OR51L1 clone 1183 it was 0.981.
As for `CCCCCCCCOC(C)=O` [octyl acetate], the odorant receptor activation stood at 0.718 in the assay on OR51A2 clone 1577; 0.953 in assay [1]; 0.981 with OR51B2 clone 1551; 0.809 in assay [2]; 0.964 in the assay on OR51B5 clone 1553; 0.64 in the assay with OR51B6 clone 1554. Also, the odorant receptor activation was 0.888 in the assay on OR51D1 clone 1206; 0.983 in the assay on OR51E1 S11N clone 1532; 1.32 in the assay with OR51E1 clone 1129; 1.17 with OR51E2 clone 1205; 1.18 in the assay on OR51F2 clone 1330; 0.906 in the assay on OR51G1 clone 1165. Also, the odorant receptor activation in the assay on OR51G2 clone 1199 was found to be 1.18; in the assay with OR51H1 clone 1187, 0.922; in the assay with OR51I1 clone 1555, 1.16; with OR51I2 clone 1133 it was 1.07; in the assay on OR51J1 R75H clone 1698, 0.644; in the assay with OR51L1 I281M clone 1535 it was 1.01. The figures for the odorant receptor activation (in assay [3]; with OR51L1 clone 1183) were 0.788 and 0.994, respectively.
For `CC(=O)OCC=C(C)CCC=C(C)C` [geranyl acetate], the odorant receptor activation is 0.984 with OR51A2 clone 1577; 0.772 in assay [1]; 1.1 in the assay with OR51B2 clone 1551; 1.54 in assay [2]; 1.12 in the assay with OR51B5 clone 1553; 1.04 in the assay with OR51B6 clone 1554. Further, the odorant receptor activation was 0.663 in the assay with OR51D1 clone 1206; 0.845 and 1.38 in the assay on OR51E1 S11N clone 1532; 1.41 with OR51E1 clone 1129; 1.04 in the assay on OR51E2 clone 1205; 0.513 and 1.26 in the assay with OR51F2 clone 1330; 0.868 in the assay with OR51G1 clone 1165. Further, the odorant receptor activation in the assay on OR51G2 clone 1199 is 1.03; with OR51H1 clone 1187, 0.806; in the assay on OR51I1 clone 1555, 1.22; with OR51I2 clone 1133, 1.06; with OR51J1 R75H clone 1698 it was 1.12; with OR51L1 I281M clone 1535, 0.765 and 1.48. For the same compound, the odorant receptor activation was 1.34 and 1.31 in assay [3]; 0.835 with OR51L1 clone 1183.
For the compound `CCCCCOC(C)=O` [n-amyl acetate], the odorant receptor activation came out at 1.05 in the assay on OR51A2 clone 1577; 0.498 in assay [1]; 1.01 in the assay on OR51B2 clone 1551; 1.17 in assay [2]; 1.02 with OR51B5 clone 1553; 1.89 in the assay with OR51B6 clone 1554. Also, the odorant receptor activation was 0.8 in the assay on OR51D1 clone 1206; 0.701 and 0.877 in the assay with OR51E1 S11N clone 1532; 0.742 with OR51E1 clone 1129; 0.784 in the assay on OR51E2 clone 1205; 0.382 in the assay on OR51F2 clone 1330; 0.468 in the assay with OR51G1 clone 1165. Moreover, the odorant receptor activation was 0.583 with OR51G2 clone 1199; 0.501 in the assay on OR51H1 clone 1187; 4.38 in the assay on OR51I1 clone 1555; 0.672 with OR51I2 clone 1133; 0.982 in the assay with OR51J1 R75H clone 1698; 0.982 and 0.745 in the assay with OR51L1 I281M clone 1535. Also, the odorant receptor activation is 1.1 and 0.903 in assay [3]; 0.688 in the assay with OR51L1 clone 1183.
